Data as given in article PMC13294675.
Results are given in words; binding and its absence hold for the method and conditions named. For part of these data: A result given as binding can be weak or reduced; the word gives no strength. For part of these data: Sequences can lack the tags named with a protein. Values belong to the binder of their own block, whether it stands above or below them.

Tests used:
Experiment in all cases: two-hybrid; Gal4-based Y2H, pGBKT7 and pGADT7 in S. cerevisiae PJ69-4A; drop tests on SD -Leu/-Trp/-His with 3-AT (0.1 to 30 mM; 0.2 mM in Fig. 4F), 28°C
[1] = target: Gal4BD-βKNL2(50–154) (Arabidopsis thaliana)
[2] = target: Gal4BD-βKNL2(50–218) (Arabidopsis thaliana)
[3] = target: full-length AtβKNL2 (yeast two-hybrid fusion) (Arabidopsis thaliana)

- binding [1]: binds
- binding [2]: no binding
B1: Gal4AD-αKNL2(1–118) (domain or fragment, UniProt F4KCE9 1-118)
chain: MTEPNLDEDGSKSSFQKTVVLRDWWLIKCPKEFEGKQFGVAGFEESVETRAMRVFTSSPITKALDVFTLLASDGIYITLRGFLNKERVLKNGFNPEISREFIFGFPPCWERVCNSCFE

- binding [3]: no binding
B2: full-length AtαKNL2 (yeast two-hybrid fusion) (protein, UniProt F4KCE9 1-598)
chain: MTEPNLDEDGSKSSFQKTVVLRDWWLIKCPKEFEGKQFGVAGFEESVETRAMRVFTSSPITKALDVFTLLASDGIYITLRGFLNKERVLKNGFNPEISREFIFGFPPCWERVCNSCFEGDSFGTDVNTVPSTIEKACPPILSPCKYSNRNLKDNPAESREKSNVTETDIAEINDKGGSGARDIKTARRRSLHLQIKRILESSKVRKTANDGDHGSEFLNTAKRGDVERDGCEVINNEDSEWKLDESEVQNLCNDGDNGSEGFIKAKSSDVEKDKSEAIDNDVISPAVGSGIKHTGADNVDKVTSASATGESLTSEQQNGLLVTTASPHSLLKDLAKSSKPEKKGISKKSGKILRSDDNVVDPMNYSGTKVKSAENKRKIDASKLQSPTSNVAEHSKEGLNNAKSNDVEKDVCVAINNEVISPVKGFGKRLSGTDVERLTSKNATKESLTSVQRKGRVKVSKAFQDPLSKGKSKKSEKTLQSNSNVVEPMNHFRSEAEEAEENLSWEKIKRKIDFDVEVTPEKKVKQQKTNAASTDSLGQKRSRSGRVLVSSLEFWRNQIPVYDMDRNLIQVKDGSETNSAPSKGKGSDSRKRRNLKIK
